Here are results for three molecules from article PMC7710356, “RNF41 regulates the damage recognition receptor Clec9A and antigen cross-presentation in mouse dendritic cells” (eLife, 2020).

The chains behind the UniProt entries cited, without tags or fusion partners. Residues count along the entry.
UniProt Q6UXN8, residues 57-241: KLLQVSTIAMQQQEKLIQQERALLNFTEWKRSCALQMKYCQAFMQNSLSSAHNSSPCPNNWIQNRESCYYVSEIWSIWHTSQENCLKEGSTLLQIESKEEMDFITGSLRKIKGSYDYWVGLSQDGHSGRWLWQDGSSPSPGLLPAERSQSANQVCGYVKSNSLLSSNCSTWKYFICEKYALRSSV

Assay [1] deals with T1, GST-tagged RNF41 N-terminal domains (RNF41-RBC) (human) (UniProt Q9H4P4).
T1 sequence: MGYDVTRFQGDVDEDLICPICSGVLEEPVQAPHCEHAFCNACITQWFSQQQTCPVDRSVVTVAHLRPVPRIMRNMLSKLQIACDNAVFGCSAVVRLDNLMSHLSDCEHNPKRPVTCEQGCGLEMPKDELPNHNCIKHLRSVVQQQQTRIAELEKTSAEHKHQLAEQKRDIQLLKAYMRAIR
The assay is described as follows: ELISA; plates coated with GST-RNF41-C, GST-RNF41-RBC or GST (10 μg/ml); FLAG-tagged Clec ectodomains 10 to 0.04 μg/ml in solution; detected with anti-FLAG HRP; both purified.

Assay [2] concerns the target T2, GST-tagged RNF41 C-terminal domain (RNF41-C) (human) (UniProt Q9H4P4).
T2 sequence: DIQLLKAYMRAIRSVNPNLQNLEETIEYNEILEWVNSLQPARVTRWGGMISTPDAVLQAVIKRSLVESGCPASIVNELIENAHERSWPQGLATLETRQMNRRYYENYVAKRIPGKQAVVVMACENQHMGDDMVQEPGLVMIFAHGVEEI
Described as above.

The target in assay [3] is T3, GST-tagged full-length human RNF41 (RNF41-RBCC) (human) (UniProt Q9H4P4).
T3 sequence: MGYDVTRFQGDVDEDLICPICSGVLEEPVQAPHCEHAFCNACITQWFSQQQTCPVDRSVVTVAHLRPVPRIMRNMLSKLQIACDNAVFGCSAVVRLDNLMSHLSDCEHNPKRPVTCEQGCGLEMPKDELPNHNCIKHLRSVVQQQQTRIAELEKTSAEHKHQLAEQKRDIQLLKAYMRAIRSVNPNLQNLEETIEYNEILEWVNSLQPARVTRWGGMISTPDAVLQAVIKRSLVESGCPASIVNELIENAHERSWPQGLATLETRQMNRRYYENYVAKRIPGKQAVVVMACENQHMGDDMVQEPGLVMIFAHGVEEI
The assay is described as follows: pull-down; GST or GST-RNF41 proteins on glutathione-sepharose; 1 μg/ml purified FLAG-tagged soluble Clec; 0.2% NP-40, 2% glycerol, 20 mM Tris-buffered saline pH 7.5; 4°C, 2 hr; anti-FLAG western blot; both purified. In general terms: A western blot detects proteins with antibodies after separation by electrophoresis.

Assay [4] has as its target T4, GST-tagged human RNF41 on the ProtoArray Human Protein MicroArray (human) (UniProt Q9H4P4).
T4 sequence: T3 sequence
The assay is described as follows: peptide or protein array; biotinylated mClec9A-ecto or Cire-ecto hybridized to ProtoArray Human Protein MicroArray v4.1 of GST-tagged human proteins; detected with Streptavidin-Alexa Fluor 647; hits Z-score >3; both purified.

These are yes or no findings as the source states them, for the method shown. Sequences can lack the tags named with a protein.

Turning to “FLAG-tagged recombinant human CLEC9A ecto-domains (hCLEC9A-ecto) (from UniProt Q6UXN8 57-241) (domain or fragment)”, in assay [1], the binding result is on record as “no binding (tested: 10 μg/ml)”.

B1: FLAG-tagged mClec12A-ecto (domain or fragment, UniProt Q504P2 65-267)
chain: YTTLATEMIKSNQLQRAKEELQENVFLQLKHNLNSSKKIKNLSAMLQSTATQLCRELYSKEPEHKCKPCPKGSEWYKDSCYSQLNQYGTWQESVMACSARNASLLKVKNKDVLEFIKYKKLRYFWLALLPRKDRTQYPLSEKMFLSEESERSTDDIDKKYCGYIDRVNVYYTYCTDENNIICEETASKVQLESVLNGLPEDSR
As for B1, the binding result in assay [2] was “no binding (tested: 10 μg/ml)”; in assay [1], “no binding (tested: 10 μg/ml)”; in assay [3], “no binding”.

B2: Cire/DC-SIGN ectodomain (Cire-ecto) (domain or fragment, UniProt Q91ZX1 73-238)
chain: VKVYKIPSSQEENNQMNVYQELTQLKAGVDRLCRSCPWDWTHFQGSCYFFSVAQKSWNDSATACHNVGAQLVVIKSDEEQNFLQQTSKKRGYTWMGLIDMSKESTWYWVDGSPLTLSFMKYWSKGEPNNLGEEDCAEFRDDGWNDTKCTNKKFWICKKLSTSCPSK
modifications: enzymatically biotinylated with BirA
B2: the binding entry in assay [4] is listed as “no binding”.
